# System: PBAN-R
# Test: Phage display screening of library peptides on insect cells expressing PBAN-R
# Format: binding, Solenopsis invicta
# Details: after three to four rounds of selection on sf9 cells expressing PBAN-R; sequenced phage colonies
row,Substance,Abundance of phage clones
1,"CQSINGHFC (Synthetically generated peptide) [SEQ ID NO: 8, synthetically generated peptide, loop-constrained by flanking cysteines]",2
2,"ERVGTHY (CERVGTHYC; Synthetically generated peptide) [SEQ ID NO: 24, screened library heptapeptide with flanking cysteine residues]",1
3,"IKIGSHY (CIKIGSHYC; Synthetically generated peptide) [SEQ ID NO: 26, screened library heptapeptide with flanking cysteine residues]",1
4,"NTGGSMA (CNTGGSMAC; Synthetically generated peptide) [SEQ ID NO: 35, screened library heptapeptide with flanking cysteine residues]",1
5,"NTGSPYE (CNTGSPYEC; Synthetically generated peptide) [SEQ ID NO: 36, screened library heptapeptide with flanking cysteine residues]",1
6,"CERVGSHFC (Synthetically generated peptide) [SEQ ID NO: 5, synthetically generated peptide, loop-constrained by flanking cysteines]",3
7,"VSRTSHL (CVSRTSHLC; Synthetically generated peptide) [SEQ ID NO: 28, screened library heptapeptide with flanking cysteine residues]",1
8,"CRGATPMSC (Synthetically generated peptide) [SEQ ID NO: 12, synthetically generated peptide, loop-constrained by flanking cysteines]",2
9,"CQKIGSHFC (Synthetically generated peptide) [SEQ ID NO: 2, synthetically generated peptide, loop-constrained by flanking cysteines]",11
10,"LPMTKHV (CLPMTKHVC; Synthetically generated peptide) [SEQ ID NO: 30, screened library heptapeptide with flanking cysteine residues]",1
11,"CLKIGSHFC (Synthetically generated peptide) [SEQ ID NO: 3, synthetically generated peptide, loop-constrained by flanking cysteines]",7
12,"ERVGTHF (CERVGTHFC; Synthetically generated peptide) [SEQ ID NO: 20, screened library heptapeptide with flanking cysteine residues]",1
13,"CVKQGTHFC (Synthetically generated peptide) [SEQ ID NO: 9, synthetically generated peptide, loop-constrained by flanking cysteines]",2
14,"IKVGPHY (CIKVGPHYC; Synthetically generated peptide) [SEQ ID NO: 25, screened library heptapeptide with flanking cysteine residues]",1
15,"CIQQGSHFC (Synthetically generated peptide) [SEQ ID NO: 4, synthetically generated peptide, loop-constrained by flanking cysteines]",3
16,"TNGDSAR (CTNGDSARC; Synthetically generated peptide) [SEQ ID NO: 33, screened library heptapeptide with flanking cysteine residues]",1

row,Substance,Abundance of phage clones
1,"TNANHYF (CTNANHYFC; Synthetically generated peptide) [SEQ ID NO: 31, screened library heptapeptide with flanking cysteine residues]",1
2,"CMARYMSAC (Synthetically generated peptide) [SEQ ID NO: 11, synthetically generated peptide, loop-constrained by flanking cysteines]",2
3,"IHXGTHF [SEQ ID NO: 22, screened library heptapeptide with flanking cysteine residues]",1
4,"LPWQIHN (CLPWQIHNC; Synthetically generated peptide) [SEQ ID NO: 29, screened library heptapeptide with flanking cysteine residues]",1
5,"IHIGSHF (CIHIGSHFC; Synthetically generated peptide) [SEQ ID NO: 16, screened library heptapeptide with flanking cysteine residues]",1
6,"QRIGLHY (CQRIGLHYC; Synthetically generated peptide) [SEQ ID NO: 27, screened library heptapeptide with flanking cysteine residues]",1
7,"SQLPWYS (CSQLPWYSC; Synthetically generated peptide) [SEQ ID NO: 34, screened library heptapeptide with flanking cysteine residues]",1
8,"TXVGSHF [SEQ ID NO: 15, screened library heptapeptide with flanking cysteine residues]",1
9,CIVQGSHFC (Synthetically generated peptide) [SEQ ID NO: 10],2
10,"QQTKNYY (CQQTKNYYC; Synthetically generated peptide) [SEQ ID NO: 32, screened library heptapeptide with flanking cysteine residues]",1
11,"QSIGTHF (CQSIGTHFC; Synthetically generated peptide) [SEQ ID NO: 19, screened library heptapeptide with flanking cysteine residues]",1
12,"TQIGTHF (CTQIGTHFC; Synthetically generated peptide) [SEQ ID NO: 17, screened library heptapeptide with flanking cysteine residues]",1
13,"YSSPSHF (CYSSPSHFC; Synthetically generated peptide) [SEQ ID NO: 23, screened library heptapeptide with flanking cysteine residues]",1
14,"HSRVSGT (CHSRVSGTC; Synthetically generated peptide) [SEQ ID NO: 21, screened library heptapeptide with flanking cysteine residues]",1
15,"IQIGTHF (CIQIGTHFC; Synthetically generated peptide) [SEQ ID NO: 18, screened library heptapeptide with flanking cysteine residues]",1
16,"CVKLGSHFC (Synthetically generated peptide) [SEQ ID NO: 6, synthetically generated peptide, loop-constrained by flanking cysteines]",2

# From patent US10017538B2, “Bioactive peptides having insecticide activity” (The United States of America, as represented by the …, priority 2016, dated 2018)
